Among the data in PubChem BioAssay AID192 (DTP/NCI, 2004) are survivor count and T/C values, retold here.

In the experiment the test system is BDF1 mice, B16 melanoma ip, median survival T/C. The experiment is described as follows: NCI In Vivo Anticancer Drug Screen. Data for tumor model B16 Melanoma (intraperitoneal) in B6D2F1 (BDF1) mice. The conditions noted are these: T/C endpoint: median survival time, higher T/C = longer survival. The method, then:
The antitumor activity of compounds was measured in mice bearing transplantable tumors. Survival or tumor size were measured and the results are expressed as the measurement made in the treated group (T) divided by the measurement made in the vehicle treated control group (C). The tumor model used in this assay is B16 Melanoma (intraperitoneal) in B6D2F1 (BDF1) mice

Setting [1] is: dose: 400.0 mg/kg/injection, schedule: Q01DX009 (ip), vehicle: Klucel (hydroxypropylcellulose) (HPC).
Where [2] appears, read: dose: 100.0 mg/kg/injection, schedule: Q01DX009 (ip), vehicle: saline.
The mark [3] stands for this setting: dose: 100.0 mg/kg/injection, schedule: Q01DX009 (ip), vehicle: Klucel (hydroxypropylcellulose) (HPC).
[4] abbreviates: dose: 32.0 mg/kg/injection, schedule: Q01DX001 (ip), vehicle: water.
Setting [5] is: dose: 200.0 mg/kg/injection, schedule: Q01DX009 (ip), vehicle: Klucel (hydroxypropylcellulose) (HPC).

The list shows only some results of the screen, not a fair sample: it is rich in T/C values a quarter to a half above the control, in often repeated tests (any T/C) and in doses without a T/C. Other doses and runs of a compound stand elsewhere. T/C gives the treated animals as a percentage of the vehicle group. Some doses have a count of surviving animals in place of a T/C: the source files T/C as zero there, which appears to mark a toxic dose or a test without result, not a measured value. Some doses without a T/C left all or most animals alive at the check, yet need not have been tolerated: survival well below the control is almost never listed, so the zero probably covers shortened survival too. Survivors were counted at the toxicity check, usually on the fifth day, unless a day is given; later deaths do not show. Schedule codes are those of the source, read here as Q, the interval in days (D) or hours (H), X, the number of doses. Marks such as (2×) count equal records among those shown. Some entries hold several experiments; the results are listed from low to high. Where survival is the endpoint, this PubChem deposit counts one and a half times the control or more as active, and values a quarter to a half above the control carry no call in these data; other NCI protocols may use other cut-offs.

For `CCCCCCC(=O)CCCC(C)CCCC(C)C` (stereo unspecified), the survivor count under setting [1] is reported as 8 of 10.

As for `O=C(O)COc1ccc([N+](=O)[O-])cc1`, the survivor count (dose: 400.0 mg/kg/injection, schedule: Q01DX009 (ip), vehicle: saline with Tween-80) is 10 of 10.

Turning to `CC(C)NNC(=O)C(N)CCC(=O)O` (stereo unspecified), the survivor count (dose: 400.0 mg/kg/injection, schedule: Q01DX009 (ip), vehicle: saline) is recorded as 10 of 10.

Turning to `NNC(=O)c1ccccc1`, under setting [2], the survivor count is recorded as 8 of 10.

With `CP(=S)(c1ccccc1)P(C)(=S)c1ccccc1` (stereo unspecified), the T/C under setting [3] was 128 % of control and the T/C under setting [1] was 129 % of control.

Regarding `CNCCNc1ccc(NCCNC)c2c1C(=O)c1ccccc1C2=O`, the survivor count is recorded as 10 of 10 (dose: 16.0 mg/kg/injection, schedule: Q01DX009 (ip), vehicle: acid diluted with saline) and 10 of 10 (dose: 32.0 mg/kg/injection, schedule: Q01DX009 (ip), vehicle: acid diluted with saline).

Regarding `COc1cccc2c1C(=O)c1c(O)c3c(c(O)c1C2=O)CC(O)(C(=O)CO)CC3OC1CC(N)C(O)C(C)O1` (stereo unspecified), the T/C is 147 % of control (dose: 0.56 mg/kg/injection, schedule: Q01DX001 (ip), vehicle: water); 149 % of control (dose: 2.59 mg/kg/injection, schedule: Q01DX004 (ip), vehicle: other); 128 % of control (dose: 2.9 mg/kg/injection, schedule: Q01DX009 (ip), vehicle: saline); 125 % of control (dose: 4.2 mg/kg/injection, schedule: Q01DX001 (ip), vehicle: other); 148 % of control (dose: 6.9 mg/kg/injection, schedule: Q01DX001 (ip), vehicle: other); 134 % of control (dose: 9.4 mg/kg/injection, schedule: Q01DX001 (ip), vehicle: water). Further, the T/C reads like this: (dose: 11.4 mg/kg/injection, schedule: Q04DX003 (ip), vehicle: saline) 129 % of control; (dose: 11.5 mg/kg/injection, schedule: Q01DX001 (ip), vehicle: other) 137 % of control; (dose: 11.7 mg/kg/injection, schedule: Q01DX009 (ip), vehicle: saline) 137 % of control; (dose: 19.2 mg/kg/injection, schedule: Q01DX001 (ip), vehicle: other) 144 % of control; (dose: 19.2 mg/kg/injection, schedule: Q01DX001 (ip), vehicle: water) 143 % of control; (dose: 20.0 mg/kg/injection, schedule: Q01DX004 (ip), vehicle: other) 131 % of control. Moreover, the T/C was 135 % of control (dose: 22.8 mg/kg/injection, schedule: Q04DX003 (ip), vehicle: saline); 133 % of control under setting [4]; 130 % of control (dose: 40.0 mg/kg/injection, schedule: Q01DX009 (ip), vehicle: saline); 132 % of control (dose: 120.0 mg/kg/injection, schedule: Q01DX001 (ip), vehicle: water); 144 % of control (dose: 240.0 mg/kg/injection, schedule: Q01DX001 (ip), vehicle: water). Further, the survivor count under setting [4] is on record as 6 of 10; the survivor count (dose: 36.0 mg/kg/injection, schedule: Q01DX001 (ip), vehicle: water) is given as 8 of 8; the survivor count (dose: 46.8 mg/kg/injection, schedule: Q01DX009 (ip), vehicle: saline) is reported as 10 of 10; the survivor count (dose: 72.0 mg/kg/injection, schedule: Q01DX001 (ip), vehicle: water) is given as 7 of 8; the survivor count (dose: 80.0 mg/kg/injection, schedule: Q01DX009 (ip), vehicle: saline) is recorded as 10 of 10; the survivor count (dose: 88.8 mg/kg/injection, schedule: Q01DX001 (ip), vehicle: water) is 3 of 10 on day 9 and 6 of 10. Moreover, the survivor count reads like this: (dose: 148.0 mg/kg/injection, schedule: Q01DX001 (ip), vehicle: water) 3 of 10 on day 9; (dose: 160.0 mg/kg/injection, schedule: Q01DX009 (ip), vehicle: saline) 5 of 10 and 10 of 10; (dose: 182.4 mg/kg/injection, schedule: Q04DX003 (ip), vehicle: saline) 10 of 10; (dose: 300.0 mg/kg/injection, schedule: Q01DX001 (ip), vehicle: water) 8 of 10 and 10 of 10.

As to `Cn1nc(N)c2ncc(-c3ccc(Cl)cc3)nc21`, where the note is “dose: 50.0 mg/kg/injection, schedule: Q01DX009 (ip), vehicle: saline with Tween-80”, the survivor count is recorded as 10 of 10.

Turning to `CCCCCCCCCCCCCCCC(=O)N(CCC#N)C(C)(C)CCC(C)(C)N(CCC#N)C(=O)CCCCCCCCCCCCCCC`, the survivor count under setting [5] is 10 of 10.

Consider `O=[N+]([O-])c1cccc(N=Cc2ccccc2)c1`, for which the T/C under setting [3] was 130 % of control.

For `Clc1ccc2c(c1)/C(=C\c1ccnc3ccccc13)c1cc(Cl)cc(Cl)c1-2`, the survivor count runs as follows: (dose: 12.5 mg/kg/injection, schedule: Q01DX009 (ip), vehicle: saline with Tween-80) 6 of 6; (dose: 25.0 mg/kg/injection, schedule: Q01DX009 (ip), vehicle: saline with Tween-80) 6 of 6.

For the compound `COc1cc2c3c(c1)/C(=N\NC(N)=O)CCN3CCC2`, the survivor count under setting [3] is reported as 10 of 10, the survivor count under setting [5] was 10 of 10 and the survivor count under setting [1] is 10 of 10.

As to `COc1cccc2c1C(=O)c1c(O)c3c(c(O)c1C2=O)C[C@@](O)(C(C)=O)C[C@@H]3OC1CC(NC(C)=O)C(O)C(C)O1` (stereo partly specified), where the note is “dose: 3.13 mg/kg/injection, schedule: Q01DX009 (ip), vehicle: saline”, the T/C was 129 % of control. For the same compound, under setting [2], the survivor count is given as 9 of 10.

Take `CC(=O)C1=CC(=O)NC(=O)C1C(=O)CC(C)C` (stereo unspecified): the survivor count runs as follows: (dose: 1.56 mg/kg/injection, schedule: Q01DX009 (ip), vehicle: Klucel (hydroxypropylcellulose) (HPC)) 10 of 10; (dose: 6.25 mg/kg/injection, schedule: Q01DX009 (ip), vehicle: Klucel (hydroxypropylcellulose) (HPC)) 10 of 10.

For the compound `[N-]=[N+]=C1C(=O)NN=C1c1ccccc1`, the survivor count reads like this: under setting [5], 0 of 10; under setting [1], 0 of 10.

Regarding `Oc1ccc(O)c(/C=N/NC(=S)NC2CC3CC2C2C=CCC32)c1` (stereo unspecified), the survivor count is 10 of 10 (2×) (dose: 12.5 mg/kg/injection, schedule: Q01DX009 (ip), vehicle: olive oil, sesame oil, peanut oil); 10 of 10 (2×) (dose: 25.0 mg/kg/injection, schedule: Q01DX009 (ip), vehicle: olive oil, sesame oil, peanut oil); 10 of 10 (2×) (dose: 50.0 mg/kg/injection, schedule: Q01DX009 (ip), vehicle: olive oil, sesame oil, peanut oil); 10 of 10 (2×) (dose: 100.0 mg/kg/injection, schedule: Q01DX009 (ip), vehicle: olive oil, sesame oil, peanut oil); 10 of 10 (2×) (dose: 200.0 mg/kg/injection, schedule: Q01DX009 (ip), vehicle: olive oil, sesame oil, peanut oil); 4 of 10 and 5 of 10 (dose: 400.0 mg/kg/injection, schedule: Q01DX009 (ip), vehicle: olive oil, sesame oil, peanut oil).

For `CC1C=CCC(C)(C)C1` (stereo unspecified), the survivor count (dose: 200.0 mg/kg/injection, schedule: Q01DX009 (ip), vehicle: other) was 10 of 10.

Regarding `C[n+]1ccc(Nc2ccc(NC(=O)c3ccc(Nc4cc[n+](C)c5ccc(N)cc45)cc3)cc2)cc1`, the survivor count (dose: 1.0 mg/kg/injection, schedule: Q01DX009 (ip), vehicle: Klucel (hydroxypropylcellulose) (HPC)) was 9 of 10; the survivor count (dose: 16.0 mg/kg/injection, schedule: Q01DX009 (ip), vehicle: Klucel (hydroxypropylcellulose) (HPC)) was 9 of 10 and 10 of 10; the survivor count (dose: 32.0 mg/kg/injection, schedule: Q01DX009 (ip), vehicle: Klucel (hydroxypropylcellulose) (HPC)) was 6 of 10; the survivor count (dose: 32.0 mg/kg/injection, schedule: Q02DX009 (ip), vehicle: Klucel (hydroxypropylcellulose) (HPC)) is 9 of 10; the survivor count (dose: 64.0 mg/kg/injection, schedule: Q02DX009 (ip), vehicle: Klucel (hydroxypropylcellulose) (HPC)) was 7 of 10 and 8 of 10.
